Series [1] concerns the target GmSOC1-6xHis (UniProt A0A2K7FY55). Description: EMSA. Conditions: DIG Gel Shift Kit (Roche 3353591910), manufacturer's instructions; pH and temperature not stated; recombinant protein; protein details: 6xHis (pET-DEST42); label: digoxigenin. For orientation: Mobility shift assays separate free from complexed probe on a gel.
The target in series [2] is T1, Dt2-6xHis (UniProt I1N4Q7).
T1 sequence (looked up, limits assumed): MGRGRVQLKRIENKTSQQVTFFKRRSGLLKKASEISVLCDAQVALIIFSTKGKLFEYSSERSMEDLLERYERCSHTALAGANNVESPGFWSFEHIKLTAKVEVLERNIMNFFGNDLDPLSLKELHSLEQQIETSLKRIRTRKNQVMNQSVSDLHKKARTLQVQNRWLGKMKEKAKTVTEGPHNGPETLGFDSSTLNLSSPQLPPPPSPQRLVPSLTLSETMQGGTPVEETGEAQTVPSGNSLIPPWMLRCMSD
In words: EMSA. Conditions: DIG Gel Shift Kit (Roche 3353591910), manufacturer's instructions; pH and temperature not stated; recombinant protein; protein details: 6xHis (pET-DEST42); label: digoxigenin.

No signal at the amounts used counts as a negative. At least one verdict was read from the data and is not stated in words by the source. For some of these results: The exact form of at least one protein or probe is not confirmed. For some of these results: Protein sequences can lack the tags named with them.

Take “AATATCCAAATTTAGAAATATG (double strand) [Dt1-CArG1]”: in series [1], the binding result is reported as “no binding”.
As for “CCACCACCAATTAGGGCTTTTTTA (double strand) [Dt1-CArG3]”, the binding result in series [1] and in series [2] was “no binding” each time.
Take “CTTATACCAAAATAAGCAACTAAC (double strand) [Dt1-CArG2]”: in series [1], the binding result is given as “no binding”.
As for “GATGAGCCGAATTAAGAGACAA (double strand) [Dt1-CArG6]”, the binding result in series [2] was “no binding”.
Consider “TTTCTCCAACAAAAGAATGCAAAC (double strand) [Dt1-CArG4]”, for which the binding result in series [1] and in series [2] was “no binding” each time.

The record behind these values is article PMC4726468.
